# Measurements: publication PMC12040169 (PLOS Biology, 2025)
# Read-outs that look alike come from different tables or passages of the source. Some of the results follow.
# Tested on: T1, CTL2-GFP (C. trachomatis L2/434/Bu, GFP-expressing)
# T1 construct: L2/434/Bu, GFP-expressing
# Design: species or system HeLa; Intracellular C. trachomatis growth in HeLa cells, bulk GFP fluorescence relative to DMSO
# Conditions: bulk GFP, single well, 28.5 h, 10 µM, inhibitor
Structure (SMILES),% of control remaining,% of control remaining (Bulk GFP fluorescence)
O=C(Cc1n[nH]c(=O)[nH]c1=O)N/N=C/c1ccc(C(=O)O)cc1 [CBK263525],118.445%,
CC(O)Cc1nnc(SCC(=O)c2ccc([N+](=O)[O-])cc2)n1-c1ccccc1 (stereo not shown) [CBK267389],145.996%,
CC(C)CCC(=O)Nc1ccc(N2CCN(C(=O)c3ccccc3C(F)(F)F)CC2)nn1 [CBK138629],81.8471%,
CC(=O)Nc1cccc(NC(=O)c2ccc(CN3CCc4ccccc4C3)cc2)c1 [CBK269534],133.318%,
COc1cccc(C(NC(=O)Cc2ccc(-n3nnnc3C)cc2)c2ccccc2)c1 (stereo not shown) [CBK285605],124.706%,
O=C(CCCn1ccnc1)Nc1ccc(OC2CCCC2)cc1 [CBK281986],127.419%,
C/C(=N\NC(=O)c1nc(-c2ccccc2)cc(-c2ccccc2)n1)c1ccc(F)cc1 [CBK262826],105.764%,
Cc1ncccc1-c1cc2cccnc2n1CCC(=O)NC1CC1 [CBK282690],103.563%,
CC(C)(C)c1cc(C(=O)N/N=C/c2ccc(O)c([N+](=O)[O-])c2)[nH]n1 [CBK263844],105.502%,
O=C(Cn1c2ccccc2c(=O)c2ccccc21)Nc1ccc(-n2cncn2)nc1 [CBK295350],115.588%,
CCOc1ccsc1C(=O)Nc1ccccc1N1CCCNCC1 [CBK036354T],115.023%,
O=C(O)c1ccc(N2C(=O)c3ccc(Oc4ccc(S(=O)(=O)c5ccc(C(=O)O)cc5)cc4)cc3C2=O)cc1 [CBK263603],100%,
Cc1cc(C)nc(Nc2n[nH]c(Cc3ccccc3)n2)n1 [CBK267023],186.464%,
CC(C)(C)c1ccc(S(=O)(=O)N2CCSC2)cc1 [CBK095672],107.758%,
COc1ccc(N2C(=O)c3ccc(C(=O)OCC(=O)c4ccc(-c5ccccc5)cc4)cc3C2=O)cc1 [CBK263532],100%,
Cc1nn(C)c(C)c1CN(C(=O)C(C)Oc1ccccc1F)C1CC1 (stereo not shown) [CBK281480],104.696%,
CCN(C)C(=O)c1cn2cc(-c3cc(C)oc3C)n(C)c(=O)c2n1 [CBK307494],145.574%,
O=C(N/N=C/c1ccc(O)c(I)c1)c1ccncc1 [CBK262144],100%,
NC(=O)c1c(NC(=O)COc2ccc3ccccc3c2)sc2c1CCCCC2 [CBK265380],119.478%,
COc1ccc(CN2CCCN(c3ccnc(OCC4COc5ccccc5O4)n3)CC2)cc1 (stereo not shown) [CBK083234T],100.084%,
O=C(COc1ccc(S(=O)(=O)N2CCCC2)cc1Cl)NCc1ccccn1 [CBK268412],139.245%,
CCC(NS(=O)(=O)c1cnc2c(c1)c(C)nn2C)C(O)C(F)(F)F (stereo not shown) [CBK306264],135.367%,
CC(=O)N1Cc2ccccc2OC2(CCN(C(=O)C3CC3)CC2)C1 [CBK285037],128.045%,
CCC(Sc1ncccc1C(=O)O)C(=O)O (stereo not shown) [CBK263216],121.48%,
CCCCCCn1nc(C(=O)NCC(=O)O)c2ccccc2c1=O [CBK297491],95.5942%,
COc1ccc(CCC(=O)N2CCCC(c3nccnc3-c3cccc(C)c3)C2)cc1 (stereo not shown) [CBK286510],116.146%,
COc1ccc([N+](=O)[O-])cc1-c1ccc(/C=N/NC(=O)Cn2nnnc2N)o1 [CBK262505],100%,

Structure (SMILES),% of control remaining,% of control remaining (Bulk GFP fluorescence)
CC(C)c1ccc(S(=O)(=O)NC(CC(=O)O)c2ccccc2)cc1 (stereo not shown) [CBK266217],142.845%,
CN1CCN(c2nc(NS(=O)(=O)c3ccc(OC(F)(F)F)cc3)cc3ccccc23)CC1 [CBK002978C],123.936%,
COc1cc(-c2cncc(N3CCCC3CO)n2)cc(OC)c1OC (stereo not shown) [CBK065389],184.407%,
CC(C)CCc1ccc(C#N)c(=O)[nH]1 [CBK016227],142.157%,
COc1cccc(-c2cnc(N)c(N3CCN(CCN(C)C)CC3)n2)c1 [CBK063561],151.8%,
CCOC(=O)N1C(=O)c2ccccc2NC1(C(F)(F)F)C(F)(F)F [CBK025725],130.067%,
CCN1CCCC1CNC(=O)c1cc(Br)cnc1N(C)C(C)=O (stereo not shown) [CBK076524],167.884%,
Nc1nnc(SCc2nc3ccccc3n2Cc2ccccc2)s1 [CBK264649],110.529%,
CC(C)Oc1ccc(C(=O)N2CCC(COc3ccc(-c4ccc(S(C)(=O)=O)cc4)cn3)CC2)nc1 [CBK161989],68.5087%,
O=C(CCOc1ccccc1)Nc1cc(N2CCNCC2)ncn1 [CBK004225T],84.5903%,
NC(=O)C1CCN([C@H]2[C@@H]3OC[C@@H](O3)[C@@H](NCc3ccc(F)cc3)[C@@H]2O)CC1 [CBK288830],124.349%,
COC(=O)n1c(=O)oc2ccc(Cl)cc21 [CBK026774],112.162%,
CCN(CC)CCn1c2ccccc2c2nc3cc(C(=O)O)ccc3nc21 [CBK297496],105.485%,
CC1(C)O[C@@H]2O[C@@H](C(O)CNC(=O)c3ccccc3)[C@@H](O)[C@@H]2O1 (stereo partly shown) [CBK008736],100%,
Cc1nn(Cc2cccc(C(=O)NCc3ccccn3)c2)c(C)c1Cl [CBK265755],148.722%,
CSCCCNC(=O)N(CCC#N)C1CCCCC1 [CBK156348],94.2447%,
Cc1c2c(nn1C)CSc1ccccc1C2=O [CBK006517],130.836%,
O=C(Cn1cc(C(=O)NCc2ccc(F)cc2)ccc1=O)NC1(c2ccccc2)CCCC1 [CBK286081],102.348%,
Nc1ncc(-c2cccc3ccccc23)nc1NCc1ccccc1 [CBK063565],48.2938%,
O=C(Nc1ccc(Cl)cc1)N1CCCCC1CO (stereo not shown) [CBK156179],102.945%,
Cc1cc(C)nc(NC2=NCCN2C(=S)Nc2ccccc2)n1 [CBK266481],138.703%,
Cc1ccc(Sc2ncccc2C(=O)Nc2ccnn2Cc2cccnc2)cc1C [CBK296980],78.9843%,
FC(F)(F)c1cc(-c2cn3ccnc3c(N3CCOCC3)n2)cc(C(F)(F)F)c1 [CBK066396],97.55%,
CC(=O)NCCCCCC(=O)N1CCN(c2ccc(C(F)(F)F)cc2)CC1 [CBK091312],119.201%,
Cc1cc(C(=O)Nc2ccccc2N2CCOCC2)c(C)o1 [CBK057243],85.4466%,
O=C(NC(/C=C/c1ccccc1)c1cc([N+](=O)[O-])c2cccnc2c1O)C1CCCCC1 (stereo not shown) [CBK265333],100.158%,
Cc1nn(Cc2c(F)cccc2Cl)c(C)c1NC(=O)CCCC(=O)O [CBK286838],111.226%,

Structure (SMILES),% of control remaining,% of control remaining (Bulk GFP fluorescence)
Cc1ccccc1CN1CCC(NC(=O)Cn2cc(Br)ccc2=O)CC1 [CBK305716],125.922%,
O=[N+]([O-])c1ccc(OCCOc2nccnc2N2CCNCC2)c2ncccc12 [CBK000623C],134.973%,
O=C(O)c1ccc(Br)c(S(=O)(=O)Nc2ccc(Cl)cc2)c1 [CBK263247],97.2912%,
CC(NC(=O)c1ccccc1)c1nnc(SCC(=O)c2ccccc2)n1C (stereo not shown) [CBK269644],134.797%,
Cc1cc(COc2nccnc2OC2CCN(Cc3ccccc3F)CC2)no1 [CBK082948T],80.8075%,
NS(=O)(=O)c1ccc(CCNC(=O)c2ccc(C#Cc3ccccc3)cc2)cc1 [CBK263089],100%,
O=C(Nc1cccnc1)c1cnc2cc(C(F)(F)F)ccc2c1O [CBK107474],,100%
Cc1onc(-c2ccccc2)c1-c1n[nH]c(=S)o1 [CBK009044],131.054%,
CCS(=O)(=O)N1CCc2cc(-c3csc(-c4cnn(C)c4)n3)ccc21 [CBK305560],114.281%,
CC(=O)Nc1nc2cc3c(cc2s1)OCCO3 [CBK287618],124.93%,
O=C(Cc1ccc(Cl)cc1Cl)NCCc1c[nH]c2ccc(Cl)cc12 [CBK159744],109.942%,
CCOC(=O)c1cnn2c(N)c(C(N)=O)nnc12 [CBK023694],125.73%,
CC(C)Nc1cc(OC2CCN(C)CC2)ncn1 [CBK113280],114.155%,
COc1ccc(Oc2nccc(N3CCCN(CCCO)CC3)n2)cc1OC [CBK084158],124.407%,
CCCNC(=O)CSc1ncccc1C(=O)O [CBK287202],132.11%,
O=C(/C=C/c1cccc2ccccc12)N1CCCCCC1 [CBK264092],108.93%,
O=C(CCc1cccnc1)N1CCC(F)CC1 [CBK200275],100.317%,
CN1CCC(NC(=O)c2cccc(NC(=O)C3CCCCC3)c2)C1=O (stereo not shown) [CBK306228],109.383%,
O=C(O)C(Cc1ccccc1)N1C(=O)c2cccc([N+](=O)[O-])c2C1=O (stereo not shown) [CBK115372],112.157%,
Cc1csc(NC(=O)c2cccn(Cc3cccc([N+](=O)[O-])c3)c2=O)n1 [CBK294414],159.45%,
CC(=O)c1ccc(-c2cnc3[nH]c(=O)n(C4CCCCC4)c3n2)s1 [CBK064382],104.43%,
O=C(O)C1CC1C(=O)N1CCC2(CC1)OCCc1c2[nH]c2ccccc12 (stereo not shown) [CBK047167],118.723%,
O=C(O)CCCC(=O)Nc1cc([N+](=O)[O-])ccc1O [CBK265592],124.598%,
O=C(NCCc1cccs1)N1CCC2(CC1)OCCc1c2[nH]c2ccccc12 [CBK047129],137.549%,
Cc1sc2nc(SCc3nc4ccccc4[nH]3)n(Cc3ccco3)c(=O)c2c1C [CBK267554],95.609%,

# Single records, from the list above.
# `O=C(O)C(Cc1ccccc1)N1C(=O)c2cccc([N+](=O)[O-])c2C1=O` (stereo not shown) [CBK115372] in the list: % of control remaining: 112.157%
# `O=C(O)CCCC(=O)Nc1cc([N+](=O)[O-])ccc1O` [CBK265592] in the list: % of control remaining: 124.598%
# `CN1CCC(NC(=O)c2cccc(NC(=O)C3CCCCC3)c2)C1=O` (stereo not shown) [CBK306228] in the list: % of control remaining: 109.383%
# `Cc1onc(-c2ccccc2)c1-c1n[nH]c(=S)o1` [CBK009044] in the list: % of control remaining: 131.054%
